In patent publication US20030096367A1:
These are yes or no findings as the source states them, for the method shown. Binding seen in cells or lysates may run through a third protein. Some results given as binding are weak or reduced against the parent protein; the word gives no strength.

Amino acid sequences for entries named in this document (tags omitted). A change or cut given only in a name is not applied to a line headed by its entry.
UniProt P10415: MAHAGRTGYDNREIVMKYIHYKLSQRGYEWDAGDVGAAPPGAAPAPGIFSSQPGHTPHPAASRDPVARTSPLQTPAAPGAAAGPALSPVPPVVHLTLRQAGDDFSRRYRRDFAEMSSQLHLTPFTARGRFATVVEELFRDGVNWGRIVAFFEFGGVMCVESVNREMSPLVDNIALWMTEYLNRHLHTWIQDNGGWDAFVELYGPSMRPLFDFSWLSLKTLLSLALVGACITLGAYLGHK
UniProt Q07812: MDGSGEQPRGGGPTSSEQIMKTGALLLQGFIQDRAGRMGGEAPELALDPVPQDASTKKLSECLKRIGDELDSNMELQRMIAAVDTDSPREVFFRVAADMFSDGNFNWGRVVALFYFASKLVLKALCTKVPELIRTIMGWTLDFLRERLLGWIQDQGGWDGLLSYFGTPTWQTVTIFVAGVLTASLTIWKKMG

Legend:
[1] = molecular target: wild type human Bcl-2 (human) (UniProt P10415); experiment: co-immunoprecipitation from RL-7 cells (FIG. 1)
[2] = molecular target: wild type human Bcl-2 (human) (UniProt P10415); experiment: co-immunoprecipitation from labeled RL-7 lysate with excess cold competitor lysate
[3] = molecular target: wild type human Bcl-2 (human) (UniProt P10415); experiment: co-immunoprecipitation with anti human Bcl-2 moAb from RL-7 lysate, different washes (FIG. 1)
[4] = molecular target: wild type human Bcl-2 (human) (UniProt P10415); experiment: co-immunoprecipitation with 6C8 moAb from 35S-methionine-labeled RL-7 cells, 0.2% NP-40 lysate, SDS-PAGE

Measured: binding

human Bax (p21, 21 kD Bcl-2 associated protein, Bax alpha) (from UniProt Q07812 1-192)
binds: all assays above
